Measured values: patent US9797889B2, “Activation of bioluminescence by structural complementation” (Promega Corporation, priority 2013, dated 2017)

B1: 5P: non-luminescent polypeptide variant 5P (protein)
chain: MVFTLEDFVGDWEQTAAYNLDQVLEQGGVSSLFQNLAVSVTPIQRIVLSGENALKIDIHVIIPYEGLSADQMAQIEKIFKVVYPVDDHHFKVILHYGTLVIDGVTPNMINYFGRPYEGIAVFDGKKITVTGTLWNGNKIIDERLITPDGSMLFRVTINP

Columns and labels:
U2OS cells [1] = test: Subcellular localization of NLpep-HaloTag fusions (Example 48); type: cell-based; settings: N-terminal fusions to HaloTag, TMR ligand
U2OS cells [2] = test: Subcellular localization of NLpoly WT and 5P by ICC (Example 49); type: cell-based

Row | Molecule | intracellular localization of HaloTag fusion (U2OS cells [1]) | intracellular localization of NLpoly (U2OS cells [2])
1 | NVSGWRLFKKISN [NLpep78] | do not alter the intracellular localization of the HaloTag protein | –
2 | NVTGYRLFKKISN [NLpep79] | do not alter the intracellular localization of the HaloTag protein | –
3 | B1 | – | localize uniformly in cells
